Results as given in PMC7463354.
Construct, isoform or probe ends are uncertain for at least one entry. Tags and fusion partners may be left off the protein sequences shown.

Legend:
[1] = molecular target: T1, r.LIN28A-Δ14 (Homo sapiens) (UniProt Q9H9Z2); assay: EMSA; conditions: 5 nM probe, EMSA: 20 mM Tris/HCl pH 7.6, 5 mM MgCl2, 100 mM NaCl, 10% glycerol, 2 mM DTT, 40 U RNase inhibitor, 60 min 25 °C, recombinant protein, residues 15-209, label: 5'-biotin
T1 sequence (looked up): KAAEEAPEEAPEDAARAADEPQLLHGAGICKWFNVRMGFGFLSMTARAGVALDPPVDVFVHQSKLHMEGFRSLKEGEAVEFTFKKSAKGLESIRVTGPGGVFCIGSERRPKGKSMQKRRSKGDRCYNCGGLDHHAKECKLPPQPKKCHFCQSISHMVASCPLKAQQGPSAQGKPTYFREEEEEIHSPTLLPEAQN

[2] = molecular target: T1, r.LIN28A-Δ14 (Homo sapiens); assay: SPR; conditions: RNA captured on SA chip, Methods call it pre-let-7g, Results and legend preE-let-7g; SPR: PBS, 0.05% Tween-20, 5% DMSO, pH 7.4, 25 °C; recombinant protein; residues 15-209; label: 5'-biotin

Sequence | Kd ([1]; Kd as printed is below the probe concentration) [nM] | Kd [2] [nM] | binding result ([1]; less bound than SUMO1-LIN28A-Δ14)
UGAGGGUCUAUGAUACCACCCGGUACAGGAGAUAA [preE-let-7g] | 0.12 | 6.7 | 
UUAGGGUCACACCCACCACUGGGAGAUAA [preE-let-7a-1] |  |  | binds
